Results are given in words; binding and its absence hold for the method and conditions named. In cells and extracts the contact can be indirect. These calls come from enrichment with a bait or labelling near it, and not all partners need be listed. For some of these results: A no says only that the protein was not detected with the bait.
B1: TgCog5 (protein, UniProt S8ESF4 1-1471)
chain: MEESRRRRSSAGERAEPSLDDSGDVEIGDLLHCLDSATVDLVHHSLPSEVLSRSHLPSQKETVPFQSTKHARALASPALKSDALNVAVYVHRVVGRGDEASSAHAAAAVKALDGALERLDEEMKKAAMFSQGERLGYENDTEIKHRRRHSSFFEGDAGRRSGENEDVRRHAHGGVPALPALLRLLGSDGEKGEGRRLRGEELREKEEQVLLALLHDSDEEKEEERGEKRQLEGDCGLVADALDGTSFIEQVKEEIQDICRESKQLHTEADRMYQSVEEEILVASRLLLLQEVVRECLHFVSTFKRLLKEESPSAKAALVKKLLALLREPHRLSASCSAAVCTPGDERGIQTGAPSAGETEKVVALGDLQSLSHCVSLVQREAAHLRNAARQQLLQAVEQGSSLSLASALDVFFLLDQLWEQVEAVLRTLVAGVCTPVATQTLQNEASRGAVSACTRVGKGSLPALLCRSDFESNLAAETESFFSRLEEGLKRASLVDQVLAVGEDPVTRQPYTAFLVASGFASTLSDEVWRASSVHFSAVLRQVGAFGPLPPSLLAALASAVSQRTQRRRRGPARASEERQGSTEEGEENRERRDTGDNEEEKEEEEKREEREAELSRFAASLAPPQRALVEATPLLSFLLLAFLRRCEEISRAGVLSKAPSESQTGVLLGTISPLRQVYIHLLAARLDGVLSSLFSTKSFSQVRLFLRRLPSAFPLSLLLPPVGSTASGSSSGEEETCREAFSRLLQAVDPVVRLPASPDIDALVSAAFGELERARVSTDAELTRQAADVVEETLESLVLLCLCQLHRDVELEPPVLVDASGKQLLRRLPAASAARVRVSKVFALFAGVEAAMKTVLEENPHFLPLLQAPSEERSERGSFSFEESLRGFQASPCVSGEFFGDAEEAEHALFLERLYSQKPSLLQWNTFREVAAVKRRLLAPLFSSVERAAVDGCLQRIVEELPASLSSPGSKAADTRERTAARGEMAATEDVEQLHALCELERLLCHVQQQYLCLLPPASLVAPLSSLSLAVLETLLSLACVCEAGDERARAFVAAVVARGEVLLSAFWTDFHKHVRVGSDMLRNVRRLLFADSPFLLHEVLTLLPQQEPWLCSENGTFSSSSSASSSSCLASPASLVTSSLPPLLVAVHLLYRLPAQSHSQQSPAGPPACLRLPGGAPELARRLSAYLRRERREPYGEGEEELETEHEETVQKLRRDLRHVVTLWGKGEESKESTGDGREGEERREREERRERRKARGWMHRDREEEKREDLKLLTQVARLLNAAVNGGREVAEGNAREIVTSAHEAPEKSTPASSLEQTPLSAENAVPVNPSPFSSSASPPSPFSASPCSSSAPALSSSSSLSSSLPSLSVQAGEAAQEQKAGARLPGFPKVHSNSLQSPSLSLNGVGEPQNSWGQTMGDREDPKAAQVPALGASPYLGWEAEKEREQEPHARTESSVPWHPPPPPCL
B2: TgCog6 (protein, UniProt S8F0D4 1-1298)
chain: MESSSGSISLGEAAASAAPLPCDVPSQSPPPFGVSAPSRAAGVSLPTSSATPVSPVLHTSSLSSSHSYKSLSRSAEPAAKSSVSASKLHPLSREVARILSHPFLEAPFLPEALACLSSCIDAGDQTAVSADSKTCGDSALSADSSLTPSQSSGLERPSFLGPLIYREKLRIHQEALGAFAPIRRQIVEVAEQAQTLSRMCSQSSSQLRRSRAQLAGLLCKVEGLREQQRALQSRQRLCQLLLDALQLPARLLEALTGRRRACVDLPETAHGDKTALAGAAKGPKQGLGPEGPGEGDSKEDLQLDSRFFEALKEVEKIRKRALKLQAQTSMADRDISEEHQSCMQNASLANRSDRMLFGGAPPRLADDVLQHTADLREAAFERLYLWMQRIFKSACVGGVNAKSRQDRRSDRSDHSGGQSSRHERETPSGDSETLDAVQQVEAFAAALATAGLARKWEREGLARAGETQSLTTVLGVNDEPSLLFRGFQALEDRHAYLQHSVQEFSRVRSQLIIDAFWGSSLESEAAPPARASTGPVSGLLARTRDLAQHWRKGGVFGGNAGLGGGSPGDADGRAAAEAANGLALGASFDTVCRAEPVEFLRATLQYVVHAVAAERAVIRGLLGLLPREDTQPPGGASGGIGALGSLGLETPGGRSKCLAEETDSLGGAERRQTEPVSGLDVEDPAKEAREATVETREGARRHLDAQEWVLDENGRPGALPDGPSAEGKEGRGGDLGAPDRACGGGEPSGSCGEMLGVREALRGTRLLQETTAGMSRPLRATIEQAFSMIRASATAPGAAGGTRLQQQHVLGVLLMVRMLDVYAALLRCLLVFDMGLASATRHPQEPKGGPGPQPVPGEGPPENVREPSVSDPTYPSPAARGRLETRTGNAVVETSFTVPELVLCCEEYAEKGEELFLSLWERQVVRAASSSTAAQLSSVLLSGRLSPGVPGTEGSAGLGGEGELIATEGGAFLELTGRLREALEILNAPVISVEEENELWLLASGAAAAASRRSRPMAAGGLPAWADTPVVTNLVRDRDASVWGTEVRRRSHLAGRRSRITGMRAFEDLSSEACEGGEGEQASEELHAWVEASVAPLLNFCRQEAQRFSDAGETAVCLINAYASVQEPLRRFRVCRSYLRVLAELLDQQMVKLIEVESGKILAYLGLADRLEAVRRAVEREKGRLGVAGPDALPQVGDGKAPLQVGTEQSGDAGPDDEVLLHKEGLVKFFGEFYVALYGLSALNLDYVDRLMHWHLRSHAKKAVLNAVLQAYSEIYNHVSHLRVATHTPGDVALLLDV
B3: TgCog7 (protein, UniProt S8FAE0 1-1223)
chain: MASPVPKPPEGALPGSPLPSSNSSSSASLQSSAVSAAFNALSAPTFSAGAWLDACIERSLEQQAFEAPPVASSSLASSPETETARLADRLESTLESVLAEVQRRIATTFEALDTKSQDLSSAAPTYVKQVEELSGKLVDARRTVDDALKALSCVDFEHQESLRRLAALDALRRHFHRCRRVLLVLHQWDFRVGEIELLLHSFQHQETPLIANPASSVDGTPFHPHQPSQGQGLSDDADASTFSSSSFSSSASSASSASSASSSSSSSAFEHAASTARLRSLAQAAMHAAALKNAVQELKAFGEFSARVRAAELLEKRVVVVTRSLMRSAFLSGDAESLRVAMNISVTLNHSAQLQQELSKCFGDQLRQAWLATWARTPAGRRRREAEVAAGACWALAPNERLHGERELYAEEQGDGFPREEADACGDDASVEKEQRTIGEPEALLLYFEEFTRLLEERSSLLRLFADELSQAEIRALRASSDDASSTSSCSSAAHSASSSSRSADPQGPFGCGRRGEEETSGVAGAASQAPHRPLRLHRTASRLHTRVWEETLLLCLKVGGEAPNAEVEAFLAAGGADLEEDDEERMARIEKLLQTYDMGFTLLSATPVVAESEPHIPQLWRKISSTCLFFPALLLRQFNAALWKSSRRFFLQDAPSVRPFDKRQAPSQVVMELEGRLDRTLQRLSSPALAALSPGAFHLCLAPCLLSAVDDAVAEFLSSLSPVLQTFAHTIQYKTQSIQDTQNRERERDLPARGNAGDFLPLDVLPTSLPFDLSLLNACMQQYLLFASAQQKLAQGAAVVFDEALTGHRRHSRFNVYLRELTNLHPDLLVYPSPSAVAHSASLLPSSCSSSFSAPPLPSVLPASFAAYTKLRHASRALVLLACSAPCSLFLHRFYPLCWGAISVSSSAQRAESLLREQRESINGQESKAILPSSVSTAAGEFFLQLLPHLEVAAAGAKGSEKRETEVESSDESLIAGLLSVVFTSFCRALLVADLPTRLTKEEPVQRGELRENMLLQLQADARYLASLSRSLGYDPEEESSFLFFETESGEGSEKARDAQADKQDQQTKDEERESSDLGETKKEEKDEAVRQERKRGPTWMIGLLLRGLDALLGTAEGETSAEPSAAKREEIKNNADENSSSLGCLGAFEAHLRRKFAREKNETKGESPSDSERVRAARAVAAAALESPSSDLCKSEKEKEDEEVTLVWAVLCQLGVFPSPL

Protein sequences, listed by entry. Tags and fused reporters are not part of them.
UniProt S8F360: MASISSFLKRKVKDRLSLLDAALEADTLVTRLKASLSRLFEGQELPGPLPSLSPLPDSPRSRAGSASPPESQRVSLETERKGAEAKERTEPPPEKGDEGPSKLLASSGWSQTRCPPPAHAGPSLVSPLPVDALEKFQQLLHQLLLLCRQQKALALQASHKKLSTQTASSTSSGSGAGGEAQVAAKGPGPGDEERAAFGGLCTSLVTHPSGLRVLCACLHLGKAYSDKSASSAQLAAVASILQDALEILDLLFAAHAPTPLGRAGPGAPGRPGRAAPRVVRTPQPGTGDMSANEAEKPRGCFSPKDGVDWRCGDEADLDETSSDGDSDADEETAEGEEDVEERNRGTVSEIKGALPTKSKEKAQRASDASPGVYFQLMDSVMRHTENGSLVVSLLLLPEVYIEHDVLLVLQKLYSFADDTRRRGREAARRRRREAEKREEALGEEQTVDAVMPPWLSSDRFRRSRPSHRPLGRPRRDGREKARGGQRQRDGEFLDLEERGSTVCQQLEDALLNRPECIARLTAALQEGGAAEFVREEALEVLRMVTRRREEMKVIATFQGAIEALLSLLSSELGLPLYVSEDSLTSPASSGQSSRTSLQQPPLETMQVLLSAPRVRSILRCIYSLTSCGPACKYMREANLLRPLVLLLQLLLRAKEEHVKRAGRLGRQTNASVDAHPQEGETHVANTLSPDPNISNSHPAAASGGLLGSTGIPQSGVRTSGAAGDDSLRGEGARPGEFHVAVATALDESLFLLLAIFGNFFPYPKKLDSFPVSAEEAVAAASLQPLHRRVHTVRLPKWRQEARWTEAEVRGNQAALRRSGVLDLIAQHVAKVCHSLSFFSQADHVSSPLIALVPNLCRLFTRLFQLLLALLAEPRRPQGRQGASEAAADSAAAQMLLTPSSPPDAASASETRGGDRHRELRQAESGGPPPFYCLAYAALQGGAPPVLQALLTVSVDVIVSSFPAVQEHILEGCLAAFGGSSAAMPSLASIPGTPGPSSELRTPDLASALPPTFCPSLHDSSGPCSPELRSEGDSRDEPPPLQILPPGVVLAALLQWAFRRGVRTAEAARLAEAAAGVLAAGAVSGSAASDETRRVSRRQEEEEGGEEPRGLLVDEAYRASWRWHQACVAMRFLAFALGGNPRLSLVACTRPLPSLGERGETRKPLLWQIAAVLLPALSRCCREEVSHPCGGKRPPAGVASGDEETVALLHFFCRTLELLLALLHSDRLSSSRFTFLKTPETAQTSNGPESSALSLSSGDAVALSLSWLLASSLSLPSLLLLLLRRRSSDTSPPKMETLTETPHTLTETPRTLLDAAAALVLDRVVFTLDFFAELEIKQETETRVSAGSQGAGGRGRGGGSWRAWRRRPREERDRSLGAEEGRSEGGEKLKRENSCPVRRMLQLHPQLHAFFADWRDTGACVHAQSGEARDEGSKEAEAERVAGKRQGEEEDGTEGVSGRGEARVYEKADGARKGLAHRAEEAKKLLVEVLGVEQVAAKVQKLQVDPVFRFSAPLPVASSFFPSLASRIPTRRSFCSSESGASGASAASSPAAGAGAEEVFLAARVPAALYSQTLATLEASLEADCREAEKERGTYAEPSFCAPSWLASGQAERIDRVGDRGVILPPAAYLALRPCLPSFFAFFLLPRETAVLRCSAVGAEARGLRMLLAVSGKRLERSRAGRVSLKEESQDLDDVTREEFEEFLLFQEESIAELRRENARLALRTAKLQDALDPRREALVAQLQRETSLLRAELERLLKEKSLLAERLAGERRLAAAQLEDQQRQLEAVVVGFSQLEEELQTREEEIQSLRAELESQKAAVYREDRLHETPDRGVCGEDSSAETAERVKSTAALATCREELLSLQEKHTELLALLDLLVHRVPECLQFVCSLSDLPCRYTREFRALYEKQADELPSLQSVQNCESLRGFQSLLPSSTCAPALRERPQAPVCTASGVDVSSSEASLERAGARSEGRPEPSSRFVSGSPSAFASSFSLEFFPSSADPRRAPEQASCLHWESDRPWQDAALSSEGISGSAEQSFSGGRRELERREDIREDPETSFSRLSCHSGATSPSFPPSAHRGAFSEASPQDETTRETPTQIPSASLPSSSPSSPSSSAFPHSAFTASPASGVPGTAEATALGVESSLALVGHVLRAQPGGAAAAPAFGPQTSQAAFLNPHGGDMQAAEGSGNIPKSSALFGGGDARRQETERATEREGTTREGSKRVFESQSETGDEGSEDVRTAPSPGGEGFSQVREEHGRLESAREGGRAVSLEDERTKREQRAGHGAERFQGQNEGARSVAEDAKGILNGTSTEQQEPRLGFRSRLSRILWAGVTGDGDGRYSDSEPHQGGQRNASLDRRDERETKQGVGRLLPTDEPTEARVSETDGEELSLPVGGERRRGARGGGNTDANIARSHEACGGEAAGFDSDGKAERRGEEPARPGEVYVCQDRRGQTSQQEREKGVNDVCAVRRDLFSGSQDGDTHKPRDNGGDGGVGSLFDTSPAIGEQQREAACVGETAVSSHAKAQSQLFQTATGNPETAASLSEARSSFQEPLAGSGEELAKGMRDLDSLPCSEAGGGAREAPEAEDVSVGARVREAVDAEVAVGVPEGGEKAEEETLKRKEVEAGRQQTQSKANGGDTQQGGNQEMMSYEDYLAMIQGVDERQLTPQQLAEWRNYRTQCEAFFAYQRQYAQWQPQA
UniProt S8F057: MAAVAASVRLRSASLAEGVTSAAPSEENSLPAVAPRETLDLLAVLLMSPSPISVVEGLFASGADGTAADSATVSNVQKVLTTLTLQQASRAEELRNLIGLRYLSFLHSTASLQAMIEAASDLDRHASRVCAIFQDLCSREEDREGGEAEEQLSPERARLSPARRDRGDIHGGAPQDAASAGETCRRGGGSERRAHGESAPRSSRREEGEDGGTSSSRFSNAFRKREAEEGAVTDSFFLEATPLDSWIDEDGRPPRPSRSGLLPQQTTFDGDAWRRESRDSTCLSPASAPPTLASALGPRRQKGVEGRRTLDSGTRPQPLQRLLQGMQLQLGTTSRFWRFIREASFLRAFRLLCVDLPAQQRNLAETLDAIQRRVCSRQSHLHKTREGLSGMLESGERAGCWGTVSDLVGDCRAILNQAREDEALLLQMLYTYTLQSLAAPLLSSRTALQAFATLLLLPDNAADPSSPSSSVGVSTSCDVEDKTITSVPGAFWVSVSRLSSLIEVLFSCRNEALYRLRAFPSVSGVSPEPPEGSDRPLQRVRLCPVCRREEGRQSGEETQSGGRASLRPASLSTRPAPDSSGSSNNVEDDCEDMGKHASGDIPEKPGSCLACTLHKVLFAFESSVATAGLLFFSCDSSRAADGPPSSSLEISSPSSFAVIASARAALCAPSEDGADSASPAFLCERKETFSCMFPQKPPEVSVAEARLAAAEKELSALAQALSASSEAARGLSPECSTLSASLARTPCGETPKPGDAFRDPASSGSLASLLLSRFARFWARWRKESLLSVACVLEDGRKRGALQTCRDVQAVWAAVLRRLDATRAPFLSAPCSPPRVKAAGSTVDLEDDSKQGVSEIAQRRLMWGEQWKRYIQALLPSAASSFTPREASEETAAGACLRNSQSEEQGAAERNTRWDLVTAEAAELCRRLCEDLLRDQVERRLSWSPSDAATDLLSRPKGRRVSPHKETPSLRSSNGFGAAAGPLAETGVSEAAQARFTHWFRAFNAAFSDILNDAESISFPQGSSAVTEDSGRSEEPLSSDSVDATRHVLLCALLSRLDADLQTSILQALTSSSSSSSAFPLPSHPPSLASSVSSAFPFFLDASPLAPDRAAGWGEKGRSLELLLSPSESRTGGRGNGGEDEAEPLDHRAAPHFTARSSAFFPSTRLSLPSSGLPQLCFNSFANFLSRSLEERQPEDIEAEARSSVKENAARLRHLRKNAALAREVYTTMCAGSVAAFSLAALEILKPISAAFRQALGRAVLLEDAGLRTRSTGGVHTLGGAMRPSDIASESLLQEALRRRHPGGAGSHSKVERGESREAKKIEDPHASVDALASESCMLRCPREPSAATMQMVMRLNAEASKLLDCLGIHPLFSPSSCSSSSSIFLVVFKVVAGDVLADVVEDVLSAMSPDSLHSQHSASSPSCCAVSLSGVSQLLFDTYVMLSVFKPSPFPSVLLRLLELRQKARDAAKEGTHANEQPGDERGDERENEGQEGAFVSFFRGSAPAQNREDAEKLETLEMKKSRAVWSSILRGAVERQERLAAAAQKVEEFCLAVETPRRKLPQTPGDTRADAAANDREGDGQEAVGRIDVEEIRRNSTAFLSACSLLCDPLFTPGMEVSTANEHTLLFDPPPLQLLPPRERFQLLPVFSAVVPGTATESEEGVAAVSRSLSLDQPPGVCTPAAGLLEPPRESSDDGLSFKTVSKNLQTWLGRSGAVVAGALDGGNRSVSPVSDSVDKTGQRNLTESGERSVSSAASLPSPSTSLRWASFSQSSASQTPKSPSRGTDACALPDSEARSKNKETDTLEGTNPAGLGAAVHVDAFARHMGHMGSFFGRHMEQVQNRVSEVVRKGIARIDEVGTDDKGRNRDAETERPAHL
UniProt A0A125YZG0: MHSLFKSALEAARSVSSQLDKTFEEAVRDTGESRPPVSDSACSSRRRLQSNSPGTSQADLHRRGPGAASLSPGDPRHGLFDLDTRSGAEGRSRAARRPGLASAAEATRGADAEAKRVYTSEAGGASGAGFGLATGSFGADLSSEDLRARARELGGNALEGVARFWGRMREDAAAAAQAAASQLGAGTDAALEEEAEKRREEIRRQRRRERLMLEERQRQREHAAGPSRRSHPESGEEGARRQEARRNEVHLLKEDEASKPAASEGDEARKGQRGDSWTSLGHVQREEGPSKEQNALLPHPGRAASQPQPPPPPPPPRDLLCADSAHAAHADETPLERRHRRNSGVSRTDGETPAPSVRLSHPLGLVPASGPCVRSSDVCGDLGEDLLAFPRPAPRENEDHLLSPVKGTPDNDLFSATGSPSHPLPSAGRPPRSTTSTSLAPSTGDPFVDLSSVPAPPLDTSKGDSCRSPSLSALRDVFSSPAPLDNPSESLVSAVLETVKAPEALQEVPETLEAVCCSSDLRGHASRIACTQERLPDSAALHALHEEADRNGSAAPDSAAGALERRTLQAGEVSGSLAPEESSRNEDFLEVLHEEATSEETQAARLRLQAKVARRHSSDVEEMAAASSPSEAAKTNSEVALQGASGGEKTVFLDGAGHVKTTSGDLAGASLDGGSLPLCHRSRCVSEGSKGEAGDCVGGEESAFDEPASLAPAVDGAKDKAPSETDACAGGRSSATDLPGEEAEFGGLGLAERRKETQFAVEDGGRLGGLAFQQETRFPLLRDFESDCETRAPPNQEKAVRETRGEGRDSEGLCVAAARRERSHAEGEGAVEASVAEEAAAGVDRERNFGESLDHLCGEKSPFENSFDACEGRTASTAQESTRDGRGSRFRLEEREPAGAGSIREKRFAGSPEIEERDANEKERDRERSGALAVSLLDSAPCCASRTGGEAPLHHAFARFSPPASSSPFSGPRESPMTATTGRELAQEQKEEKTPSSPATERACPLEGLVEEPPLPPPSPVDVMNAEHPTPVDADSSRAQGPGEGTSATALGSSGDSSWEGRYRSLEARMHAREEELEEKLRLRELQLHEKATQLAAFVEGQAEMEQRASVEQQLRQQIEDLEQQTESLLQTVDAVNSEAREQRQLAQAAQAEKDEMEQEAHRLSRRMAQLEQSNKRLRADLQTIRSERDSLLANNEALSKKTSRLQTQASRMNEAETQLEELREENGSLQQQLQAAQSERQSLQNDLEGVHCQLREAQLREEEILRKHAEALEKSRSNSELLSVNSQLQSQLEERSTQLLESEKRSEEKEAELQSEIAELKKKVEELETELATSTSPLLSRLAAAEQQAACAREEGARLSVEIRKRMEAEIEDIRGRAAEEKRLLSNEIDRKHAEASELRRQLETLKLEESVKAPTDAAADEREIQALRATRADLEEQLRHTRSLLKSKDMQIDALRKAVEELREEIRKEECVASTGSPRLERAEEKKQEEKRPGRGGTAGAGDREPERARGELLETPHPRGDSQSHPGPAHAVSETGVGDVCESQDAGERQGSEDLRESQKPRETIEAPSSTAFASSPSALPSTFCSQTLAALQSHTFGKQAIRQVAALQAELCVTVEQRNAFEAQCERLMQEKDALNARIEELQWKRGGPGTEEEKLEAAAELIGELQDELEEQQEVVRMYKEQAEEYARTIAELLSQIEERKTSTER

Tests used:
[1] = biological target: TgGlp1^myc (Toxoplasma gondii (endogenous in RH tachyzoites)); test: affinity purification with mass spectrometry; myc-tagged bait (TGME49_289120^myc or TgGlp1^myc) isolated on α-Myc magnetic beads; extraction in PBS with 263 mM NaCl, 1% Triton X-100; pull-down from the parental strain as control; SAINT analysis
[2] = biological target: TGME49_289120^myc (Toxoplasma gondii (endogenous in RH tachyzoites)) (UniProt S8F360); test: as above
[3] = biological target: TgCog8^AID-HA (Toxoplasma gondii (endogenous in RH tachyzoites)); test: affinity purification with mass spectrometry; TgCog8^AID-HA complexes from dividing tachyzoites isolated on α-HA magnetic beads; extraction in PBS with 263 mM NaCl, 1% Triton X-100; pull-down from the parental strain as control; SAINT analysis

Row | Molecule | binding [1] | binding [2] | binding [3]
1 | TgCog1 (from UniProt S8F057 1-1878) | no binding | binds | –
2 | TgUlp1 (Uso1-like protein 1) (from UniProt S8F360 1-2703) | no binding | – | –
3 | TgGlp1 (Golgi protein 1) (from UniProt A0A125YZG0 1-1711) | – | no binding | –
4 | B1 | no binding | binds | binds
5 | B2 | no binding | binds | binds
6 | B3 | no binding | binds | binds

— PMC10746232
